Taken from: PubChem BioAssay AID1224826 (NIAID, 2016)

- Aim: 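Regulators of Tlr4 signalling leading to Tnf-alpha expression in macrophages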 (primary screen)
- Cells: RAW264.7 G9 macrophages from mouse bearing reporters for p65 (GFP) and the Tnf promoter (mCherry)
- Reagents: siRNA pool against mouse genes, 100 nM
- Duration: 16 h of LPS stimulation, after 2 days of siRNA transfection
- Challenge: bacterial lipopolysaccharide (Salmonella minnesota R595), 10 ng/ml
- Measured: 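Nuclear mCherry signal of the Tnf promoter reporter measured by imaging after background removal, scaled to each plate median and turned into robust z-scores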
- Reading the numbers: Tnf reporter robust z-score: higher = stronger Tnf promoter reporter signal after LPS; Tnf reporter intensity: higher = stronger Tnf promoter reporter signal
- Rule for the call: 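a well counts as active at a score of -1.3 or below (Tlr4 knock-down control median) or above 3 (raised signal); controls and wells holding fewer than 50 cells are excluded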
- Meaning of the calls: active = Tnf reporter clearly lowered or raised; inactive = no clear change in Tnf reporter
Shown is one part, drawn at random, of about 17,000 deposited reagents. Of all reagents, about 1,110 (6.6%) are marked active. 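Active means lowered or raised reporter signal; replicate intensities are raw and not normalised per plate.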 No sequences are given here.

no.	target	Tnf reporter robust z-score	fewer than 50 cells in well	Tnf reporter intensity, replicate 1	Tnf reporter intensity, replicate 2	Call
1	Sinhcaf	1.96	enough cells in well	165	181	inactive
2	Map6	-0.43	enough cells in well	181	98.2	inactive
3	Pofut1	-1.52	enough cells in well	60.7	65.7	active
4	Eaf2	0.04	enough cells in well	275	186	inactive
5	Tppp		fewer than 50 cells per well; well left out of calls	261	89.9	inactive
6	Boll	-1.35	enough cells in well	8.7	85.4	active
7	Sft2d1	0.36	enough cells in well	169	168	inactive
8	Ccdc73		fewer than 50 cells per well; well left out of calls	196	56.3	inactive
9	Drc10	-1.34	enough cells in well	108	70	active
10	Kng1	-0.17	enough cells in well	226	142	inactive
11	Vnn1	0.59	enough cells in well	264	289	inactive
12	Ube2l3	0.91	enough cells in well	283	320	inactive
13	Tbx21	-0.74	enough cells in well	161	110	inactive
14	Mlh1	-1.04	enough cells in well	181	124	inactive
15	Skint4	-1.22	enough cells in well	110	107	inactive
16	Twsg1	-1.66	enough cells in well	55.1	48.3	active
17	Rasa2	0.35	enough cells in well	375	209	inactive
18	Cyp21a1	-0.61	enough cells in well	181	167	inactive
19	Ostc		fewer than 50 cells per well; well left out of calls	101	27.7	inactive
20	Nxph4		fewer than 50 cells per well; well left out of calls	86.1	87.6	inactive
21	Slc12a5	2.82	enough cells in well	207	187	inactive
22	Gpr156	0.4	enough cells in well	251	323	inactive
23	Pnkd	1.29	enough cells in well	172	282	inactive
24	Or52e3	-1.24	enough cells in well	93.6	66	inactive
25	Mapre3	-0.63	enough cells in well	178	186	inactive
26	Ldlrap1	-0.09	enough cells in well	153	154	inactive
27	Cabp5	-1.45	enough cells in well	86.3	87.3	active
28	Nectin3	1.01	enough cells in well	454	249	inactive
29	Stk39	-0.13	enough cells in well	169	0	inactive
30	Slc24a1	0.16	enough cells in well	88.2	127	inactive
31	Olfr257	0.15	enough cells in well	193	119	inactive
32	Cog4	0.14	enough cells in well	235	239	inactive
33	Zmynd11	-0.48	enough cells in well	251	165	inactive
34	Setd3	-1.03	enough cells in well	105	131	inactive

Hits (from the list above):
target	Tnf reporter robust z-score	fewer than 50 cells in well	Tnf reporter intensity, replicate 1	Tnf reporter intensity, replicate 2	Call
Pofut1	-1.52	enough cells in well	60.7	65.7	active
Boll	-1.35	enough cells in well	8.7	85.4	active
Drc10	-1.34	enough cells in well	108	70	active
Twsg1	-1.66	enough cells in well	55.1	48.3	active
Cabp5	-1.45	enough cells in well	86.3	87.3	active

The listing continues:
no.	target	Tnf reporter robust z-score	fewer than 50 cells in well	Tnf reporter intensity, replicate 1	Tnf reporter intensity, replicate 2	Call
35	Wdr46	-0.05	enough cells in well	81.3	161	inactive
36	Mog	1.11	enough cells in well	300	152	inactive
37	Yipf4		fewer than 50 cells per well; well left out of calls	101	67.6	inactive
38	Csf2rb	-0.01	enough cells in well	220	216	inactive
39	Cd200r3	0.44	enough cells in well	198	55.8	inactive
40	Kank2	-0.47	enough cells in well	182	149	inactive
41	BC048679	-1.01	enough cells in well	128	197	inactive
42	Aknaos		fewer than 50 cells per well; well left out of calls	129	87.7	inactive
43	Mab21l4		fewer than 50 cells per well; well left out of calls	118	79.1	inactive
44	Snca	-0.91	enough cells in well	184	157	inactive
45	Mok	1.53	enough cells in well	313	229	inactive
46	Wdr26	-0.86	enough cells in well	70.3	109	inactive
47	Rccd1	-0.11	enough cells in well	243	196	inactive
48	Iffo2	1.27	enough cells in well	183	323	inactive
49	Selenoi	-1.36	enough cells in well	135	61.5	active
50	Bhlha9	-0.58	enough cells in well	132	160	inactive
51	Mrpl14	-0.25	enough cells in well	255	70.6	inactive
52	Zbtb26	0.47	enough cells in well	177	200	inactive
53	Grb7	-0.96	enough cells in well	186	147	inactive
54	Or4m1		fewer than 50 cells per well; well left out of calls	87.2	105	inactive
55	Zfp97	-0.24	enough cells in well	118	110	inactive
56	Plpp3	0.59	enough cells in well	277	246	inactive
57	Vmn1r15	2.96	enough cells in well	238	178	inactive
58	Hoxa7	0.12	enough cells in well	242	201	inactive
